In patent US20250011881A1, “MYC-HSF1 DUAL AMPLIFICATION AS A BIOMARKER FOR CANCER TREATMENT” (The Trustees of Indiana University, priority 2023, published 2025):
Like-named read-outs stand apart in the source and are kept apart here.

System: ovarian cancer cells with (OVCAR8, OVCAR4) or without (OVSAHO, CAOV3) MYC-HSF1 amplification
Experiment: Epigenetic inhibitor drug screen, cell viability (Cell Titer Blue)
Assay type: cell-based

Row | Compound | Non Amp - AMP (POC) 10 uM (10 uM, 48 hrs, average relative cell viability (vs 1% DMSO) of non-amplified cells (OVSAHO, CAOV3) minus that of MYC-HSF1 amplified cells (OVCAR8, OVCAR4), positive = greater response in amplified cells) | Non Amp - AMP (POC) 10 uM
1 | Cc1ccc(C(=O)NCCCCCC(=O)Nc2ccccc2N)cc1 [RG2833] | 17.84 POC | –
2 | Cc1ccc(C(=O)NCCCCCC(=O)Nc2ccccc2N)cc1 [RGFP109] | – | 50.52 POC
